In publication PMC8372973 one finds binding data, which are given here for 1 molecule.

Test [1] has as its target T1, GBD-Stt4(1-257) (S. cerevisiae) (UniProt P37297).
T1 sequence: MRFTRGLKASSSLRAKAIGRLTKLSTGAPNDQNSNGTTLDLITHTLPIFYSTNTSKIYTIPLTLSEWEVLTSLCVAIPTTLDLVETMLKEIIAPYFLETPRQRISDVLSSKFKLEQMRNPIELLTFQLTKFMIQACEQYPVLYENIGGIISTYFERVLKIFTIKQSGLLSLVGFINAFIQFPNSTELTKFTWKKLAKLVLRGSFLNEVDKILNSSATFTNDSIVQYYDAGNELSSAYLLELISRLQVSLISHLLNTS
Kind of test: two-hybrid; AH109 cells producing GAD-Ypp1 and GBD-fusion proteins; 10-fold serial dilutions spotted on SC -W -L or -A -W -L -H plates with 1 M sorbitol; 2 days at 30°C.

Test [2] addresses T2, GBD-Stt4frag (Stt4 1-814) (S. cerevisiae) (UniProt P37297).
T2 sequence: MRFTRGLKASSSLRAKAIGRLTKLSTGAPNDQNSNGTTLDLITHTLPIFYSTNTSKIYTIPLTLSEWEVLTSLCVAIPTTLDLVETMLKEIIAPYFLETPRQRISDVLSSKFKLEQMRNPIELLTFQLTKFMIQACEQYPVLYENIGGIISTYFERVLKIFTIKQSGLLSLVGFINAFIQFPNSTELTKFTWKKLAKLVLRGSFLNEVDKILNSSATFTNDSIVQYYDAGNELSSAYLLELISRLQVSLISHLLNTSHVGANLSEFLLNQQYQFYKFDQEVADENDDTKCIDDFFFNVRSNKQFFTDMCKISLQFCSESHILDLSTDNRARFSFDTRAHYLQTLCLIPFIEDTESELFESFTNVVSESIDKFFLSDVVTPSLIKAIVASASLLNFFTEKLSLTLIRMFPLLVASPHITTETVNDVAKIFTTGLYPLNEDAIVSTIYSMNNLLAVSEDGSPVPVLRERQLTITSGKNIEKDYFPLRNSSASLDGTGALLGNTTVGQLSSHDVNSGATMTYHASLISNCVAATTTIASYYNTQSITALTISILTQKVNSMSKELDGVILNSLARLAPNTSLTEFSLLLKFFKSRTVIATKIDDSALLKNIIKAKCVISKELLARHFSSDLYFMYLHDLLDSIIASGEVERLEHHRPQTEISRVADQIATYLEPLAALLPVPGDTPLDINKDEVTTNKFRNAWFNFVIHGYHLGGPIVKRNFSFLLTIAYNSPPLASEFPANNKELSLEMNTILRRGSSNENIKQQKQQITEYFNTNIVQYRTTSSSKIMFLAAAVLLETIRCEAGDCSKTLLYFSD
Described as above.

Results are given in words; binding and its absence hold for the method and conditions named. Some entries that bind do so weakly or less than the wild type.

B1: GAD-Ypp1 (protein, UniProt P46951 1-817)
chain: MPNSNVRIPPTVPSKIIDVVDQALRARLLGGSTFNSGFDSLDSVLNLQFRLHYHVIGSNGPAKPVCDVLLKESQNLEKNMSMMEELNDYPEITKLVEKILFNCLGILFFHRGQFQESQRCLLHSLKIHNNTASQKTALMEQYDRYLIVENLYYRGLVSQDINIMQNVFYKELLAHVDTIPPESNGLLFEYISLIVAKLRFNQIQDLAENFKTTVENPFILFLYMIKKFQSPLKKHIDNDDLYLKFGQNVLLKAKFPTASETNDEALEHFNVFLQYYFKFTHIKKIKVNPSWYNFIISSMEKTFQSIEVSKTAMFLFQNLSDNSNDEIKKKTFKRESILNFVNFVKYNDKYYQLHDNSHRDIISFIDAYSFILQNSSKTDSIENVFDYDNTVSTFATSLNSFYKEYNLPLMSQSESLDWLENSTRCVYPGNISKVLTNAWSTLYEIRKYQLDFLVSNNLTSYLCNAMMLSTKEKDNADVEEQEEGEEEKALRELQFKYSYTLAQQRHIETAIKTLESLILSKNPNYYKAWHLLALCRSVQEDKEMSYKIVCSVLEAMNESLQNNTLLLNDRWQFIHLKLTQLALIEEIFGTLEALETLPEVFELYATLFPDSQPELNSMGPKYSQTKEYLLQMVWIFAANMYMRTKDNDEDAKAAIKEASNVESKFKNLNCNIANGYLSIIKDEPGVALKEFETVLYYDENNLDALVGFAELIFPEELGVEETNLERYYTLSLDKKPGKRAKLTFVNDTDRSAAYARLKFLLECAILESIEAYYSPEVWWYLSLIYEKYQDDEYKNSLLKCIKYQELNPIRSLRYCNY
As for B1, the binding result in test [1] and in test [2] was “binds” in each case.
